{
  "source": "paper PMC11879112",
  "target": "T1, GFP-tagged FASTKD4 (UniProt Q969Z0)",
  "T1 sequence": "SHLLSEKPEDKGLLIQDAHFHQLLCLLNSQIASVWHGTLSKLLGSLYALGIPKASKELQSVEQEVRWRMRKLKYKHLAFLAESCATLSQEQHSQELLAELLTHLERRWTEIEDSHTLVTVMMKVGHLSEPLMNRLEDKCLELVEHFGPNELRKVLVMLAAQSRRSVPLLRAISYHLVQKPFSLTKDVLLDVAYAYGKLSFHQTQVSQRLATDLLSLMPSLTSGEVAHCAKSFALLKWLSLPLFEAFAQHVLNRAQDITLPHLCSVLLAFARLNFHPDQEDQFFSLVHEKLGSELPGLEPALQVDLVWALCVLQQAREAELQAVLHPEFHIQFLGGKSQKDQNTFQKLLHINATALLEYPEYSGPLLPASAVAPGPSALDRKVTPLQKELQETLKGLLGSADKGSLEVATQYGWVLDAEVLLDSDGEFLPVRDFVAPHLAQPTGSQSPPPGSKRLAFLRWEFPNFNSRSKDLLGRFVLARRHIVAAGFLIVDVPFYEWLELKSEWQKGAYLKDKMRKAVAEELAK",
  "assay": "co-IP; GFP-tagged FASTKD4 from transfected 143B (WT) cells on GFP-Trap Dynabeads, 2 h at 4°C; lysis in 260 mM sucrose, 100 mM KCl, 20 mM MgCl2, 10 mM Tris-HCl pH 7.5, 1% digitonin; immunoblot",
  "note": "Results are given in words; binding and its absence hold for the method and conditions named. Binding seen in cells or lysates may run through a third protein. Tags and fused reporters may be left off the sequences shown.",
  "data": [
    {"substance": "SLIRP (human (endogenous in 143B))", "values": [
      {"measurement": "binding", "result": "no binding"}
    ]}
  ]
}
